Reference: patent US20140031309A1, “Beta-L-N4 Hydroxycytosine Deoxynucleosides and their use as Pharmaceutical Agents in the Prophylaxis or Therapy of Viral Diseases” (MAX-DELBRUECK-CENTRUM FUER MOLEKULARE MEDIZIN, priority 2004, published 2014)
pEC50: −log10 of the molar value. At least one structure is not confirmed: it was looked up by name or label, or the drawing left a doubt. Some of these results come from one statement about several compounds together.

Tests used:
[1] = test system: HBV; assay: Inhibition of HBV-replication in HepG2 2.2.15 cells (extracellular HBV DNA, PCR); type: cell-based, hepatitis B virus; settings: 6 days incubation, read-out: EC50, concentration required for 50% reduction of HBV DNA in the medium of the cells
Experimental: The antiviral efficacy of the compounds of the invention was investigated on HepG2 2.2.15 cells, a human hepatoblastoma cell line which has the replication-competent HBV genome stably integrated therein and produces infectious progeny viruses in a productive manner (Sells et al., Proc Natl Acad Sci USA 1987, 84: 1005-1009).
The above cells were cultured under standardized conditions as specified by Korba and Gerin, and the amount of extracellular viral DNA was determined (Korba et al., Antiviral Res 1992, 19: 55-70).
Following passaging, the HepG2 2.2.15 cells were seeded at a density of about 60% in 12-well plates and cultured to confluence in 10% FBS Dulbecco MEM. Thereafter, the medium was changed to 2% FBS, and the cells were cultured for another 24 hours.
After another change of medium, the cells were treated with varying concentrations of compounds according to the invention. Every 24 hours the compounds were re-added together with the medium. […]
Following treatment of the culture supernatants with proteinase K, the extracellular viral DNA was amplified by means of PCR using the following primers (forward: 5′-CTCCAGTTCAGGAACAGTAAACCC-3′(SEQ ID NO. 1); reverse: 5′-TTGTGAGCTCAGAAAGGCCTTGTAAGTTGGCG-3′(SEQ ID NO. 2). The PCR products were separated on 1% agarose, stained with ethidium bromide and quantified using a Fluor-S™ Multimager (Biorad). […]

[2] = test system: HIV; settings: Schinazi et al. 1992; read-out: EC50 of HIV-replication inhibition; cited from earlier work

Row | Structure (SMILES) | pEC50 [1] | pEC50 [2]
1 | O=c1nc(NO)ccn1[C@@H]1C=C[C@H](CO)O1 [L-HyddeC, β-L-2′,3′-didehydro-2′,3′-dideoxy-N4-hydroxycytidine] | > 7.00 | 
2 | Nc1ccn([C@@H]2CS[C@H](CO)O2)c(=O)n1 [3TC (lamivudine), β-L-2′,3′-dideoxy-3′-thiacytidine, reference compound] |  | 8.70
